Measurements as given in PMC3742540.

By UniProt entry, the sequences of proteins in these tests, tags left out. Where a name states a change or a piece, a line headed by the entry shows the natural chain unless it says otherwise.
UniProt P61586: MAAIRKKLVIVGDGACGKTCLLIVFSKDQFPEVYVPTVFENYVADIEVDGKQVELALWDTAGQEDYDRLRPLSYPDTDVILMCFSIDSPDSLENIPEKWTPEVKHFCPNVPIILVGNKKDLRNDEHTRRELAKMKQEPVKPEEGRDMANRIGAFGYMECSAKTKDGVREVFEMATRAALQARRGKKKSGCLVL
UniProt P60766: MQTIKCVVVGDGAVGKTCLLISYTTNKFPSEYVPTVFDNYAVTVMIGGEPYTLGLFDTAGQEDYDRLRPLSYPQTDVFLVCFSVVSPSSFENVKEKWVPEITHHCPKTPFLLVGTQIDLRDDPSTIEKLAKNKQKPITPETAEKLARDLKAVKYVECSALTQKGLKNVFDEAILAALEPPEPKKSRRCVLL
UniProt Q9QUI0: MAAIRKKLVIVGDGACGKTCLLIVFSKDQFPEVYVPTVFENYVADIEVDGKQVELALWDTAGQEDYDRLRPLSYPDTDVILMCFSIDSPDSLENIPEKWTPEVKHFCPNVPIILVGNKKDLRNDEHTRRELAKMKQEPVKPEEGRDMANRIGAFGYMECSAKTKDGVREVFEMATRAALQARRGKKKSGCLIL
UniProt P60953: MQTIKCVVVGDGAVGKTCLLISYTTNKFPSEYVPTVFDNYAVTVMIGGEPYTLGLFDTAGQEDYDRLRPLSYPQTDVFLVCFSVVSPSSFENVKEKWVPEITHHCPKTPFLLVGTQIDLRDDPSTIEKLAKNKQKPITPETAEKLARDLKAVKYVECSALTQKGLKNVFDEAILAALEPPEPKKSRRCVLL

How the values were obtained:
[1] = target: T1, Myc-tagged RhoGDIα expressed in HEK293T cells (not stated (human or mouse cDNA cloned)) (UniProt P52565); test: co-IP; HEK293T cells expressing Myc-RhoGDIα alone or with Flag-tagged wild-type or mutant human FRMD7, 48 h; Myc-RhoGDIα precipitated with anti-Myc antibody bound to protein A/G-Sepharose; blots for Rac1, Cdc42, RhoA and Flag
T1 sequence: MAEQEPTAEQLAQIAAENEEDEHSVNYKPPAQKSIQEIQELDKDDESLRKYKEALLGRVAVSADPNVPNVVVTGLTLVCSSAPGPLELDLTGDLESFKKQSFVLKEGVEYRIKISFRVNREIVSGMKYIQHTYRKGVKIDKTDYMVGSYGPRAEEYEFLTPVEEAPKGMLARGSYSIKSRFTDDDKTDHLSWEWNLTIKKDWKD

[2] = target: T2, Myc-tagged mouse RhoGDIα (mouse) (UniProt Q99PT1); test: co-IP; Neuro-2a cells expressing Myc-RhoGDIα with or without Flag-full-length FRMD7; Myc-RhoGDIα precipitated with 3 µg anti-Myc antibody bound to protein A/G-Sepharose; blots for Rac1, Cdc42, RhoA and Flag
T2 sequence: T1 sequence with V71I, G74R, S81T, V162M, S176N, D201E

“endogenous RhoA (HEK293T) (from UniProt P61586)” was tested, and the binding [1] was “binds”.
“endogenous Cdc42 (Neuro-2a) (from UniProt P60766)” was tested, and the binding [2] was “binds”.
With “endogenous RhoA (Neuro-2a) (from UniProt Q9QUI0)” the binding [2] was “binds”.
In the case of “endogenous Cdc42 (HEK293T) (from UniProt P60953)”, the binding [1] is reported as “binds”.

Where a chain is given by its changes, count along the chain named. These are yes or no findings as the source states them, for the method shown. In cells and extracts the contact can be indirect. A result given as binding can be weak or reduced; the word gives no strength. Where a sequence is shown, tags or fusion partners need not be part of it.
